Numbering of substitutions follows the chain as printed. These are yes or no findings as the source states them, for the method shown. Some results given as binding are weak or reduced against the parent protein; the word gives no strength.
Key:
[1] = target: recombinant IL-1R1 (R&D Systems) (human) (UniProt P14778); test: SPR sensorgram (FIG. 3A), IL-1R1 immobilized, dAb injected after IL-1ra
[2] = target: recombinant IL-1R1 (R&D Systems) (human) (UniProt P14778); test: SPR (Biacore 3000), IL-1R1 on a CM5 chip, dAb injected straight after IL-1ra
[3] = target: recombinant IL-1R1 (R&D Systems) (human) (UniProt P14778); test: SPR off-rate screening of expression supernatants on an IL-1R1 chip, compared with the parental dAb; no off-rate printed
[4] = target: recombinant IL-1R1 (R&D Systems) (human) (UniProt P14778); test: supernatant receptor binding assay (competition ELISA against IL-1β on captured IL-1R1)

Protein sequences, listed by entry. Tags and fused reporters are not part of them. Residues count along the entry.
UniProt P14778, residues 18-332: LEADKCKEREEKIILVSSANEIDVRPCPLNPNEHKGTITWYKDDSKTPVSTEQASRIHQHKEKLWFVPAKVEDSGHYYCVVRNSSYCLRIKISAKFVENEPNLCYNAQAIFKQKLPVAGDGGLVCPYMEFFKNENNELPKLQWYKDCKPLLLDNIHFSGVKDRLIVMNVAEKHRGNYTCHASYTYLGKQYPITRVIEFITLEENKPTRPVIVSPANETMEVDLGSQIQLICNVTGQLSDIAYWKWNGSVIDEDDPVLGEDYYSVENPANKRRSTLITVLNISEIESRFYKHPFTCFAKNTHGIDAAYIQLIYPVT

B1: DOM4-122-23 (other)
VL: DIQMTQSPSSLSASVGDRVTITCRASQWIGRELRWYQQKPGKAPMFLIYHASRLQRGVPSRFSGSGSGTDFTLTISSLQPEDFATYYCQQYHGWPLTFGQGTKVEIKR
B1 was tested, and the binding [1] was “binds” and the binding [2] was “binds”.

B2: DOM4-129-1 (other)
VL: B1 VL with W28N, G30D, G93D, W94F
B2 was tested, and the binding [3] was “binds”.

B3: DOM4-129 (protein)
VL: B1 VL with W28N, G30D, F46L, R56S, G93D, W94F
In the case of B3, the binding [4] is reported as “binds”.
